Data on 49 compounds can be found in publication PMC12040169 (PLOS Biology, 2025).

This is one part of the list.

This assay relates to T1, CTL2-GFP (C. trachomatis L2/434/Bu, GFP-expressing).
T1 construct: L2/434/Bu, GFP-expressing
Set-up: species or system HeLa; Intracellular C. trachomatis growth in HeLa cells, bulk GFP fluorescence relative to DMSO. Particulars: bulk GFP, single well; 28.5 h, 10 µM; inhibitor.
In the case of `CC(=O)OCc1c(C)cc(C)c(CN(C)C(C)c2ccon2)c1C` (stereo not shown) [CBK306780], the “% of control remaining” value came out at 191.479%.
The value for `O=C(CCCC1CC1)N1CCn2c(nnc2-c2cncc(Br)c2)C1` [CBK304767] was 119.829%; that for `CCc1noc(C)c1C(=O)Nc1cc(S(=O)(=O)N2CCCCC2)ccc1N(C)C` [CBK295328] was 143.589%.
Take `O=C(CC(CN1CCN(Cc2ccccn2)CC1)C(=O)O)Nc1ccc(F)cc1` (stereo not shown) [CBK286800]: the “% of control remaining” value amounted to 132.307%.
With `O=c1[nH]ccn2nc(-c3ccc4c(c3)OCO4)cc12` [CBK288048], the “% of control remaining” value was determined as 125.29%.
The value for `NC(=O)CC1C=CS(=O)(=O)C1` (stereo not shown) [CBK019653] was 139.423%; that for `Cc1ccc(-c2cc(C(=O)N3CCN(C4CCS(=O)(=O)C4)CC3)c3ccccc3n2)cc1` (stereo not shown) [CBK297153] was 93.7576%; that for `COc1nnc(-c2ccc(N3CCOCC3)c(NC(=O)COc3ccc(C)cc3)c2)c2ccccc12` [CBK266103] was 175.356%.
With `COc1ccc(S(=O)(=O)N2CCN(C(=O)c3ccco3)CC2)c2ccccc12` [CBK269839], the “% of control remaining” value was 134.42%.
The value for `O=C(NCCNC(=O)c1ccccn1)c1cccc(F)c1` [CBK269613] was 134.813%; that for `COc1ccc(C(=O)C(C)OC(=O)c2ccc3ccccc3n2)cc1` (stereo not shown) [CBK111937] was 99.5326%; that for `CNC(=O)C1(Cc2ccccc2-c2cccs2)CCN(C(=O)c2cccc(OC)c2)CC1` [CBK285907] was 106.126%.
As to `CCSc1nc(N)c(NC(=O)c2ccco2)c(=O)[nH]1` [CBK287613], the “% of control remaining” value turned out to be 127.227%.
Consider `Cc1ccc(N(CC(O)CNC23CC4CC(CC(C4)C2)C3)S(=O)(=O)c2ccccc2)cc1` (stereo not shown) [CBK264741], for which the “% of control remaining” value was found to be 87.1292%.
In the case of `Cc1ccccc1C(=O)N1CCN(Cc2cc(=O)n3ccsc3n2)CC1` [CBK304595], the “% of control remaining” value is recorded as 135.65%.
The value for `Cc1c(Cl)cccc1NC(=S)/N=C(\N)Nc1nc(C)c2ccccc2n1` [CBK268866] was 95.8367%.
`CC(=O)N1CC2(CCN(C(=O)c3ccco3)CC2)Nc2ccccc21` [CBK284447]: the “% of control remaining” value is given as 109.079%.
The value for `CCOC(=O)N1CCN(C(=O)C2CC=CCC2C(=O)O)CC1` (stereo not shown) [CBK266142] was 140.867%; that for `COc1cc(CNC2CCCc3c2cnn3C)c(O)c(C(C)(C)C)c1` (stereo not shown) [CBK304716] was 102.935%.
On to `CCCC/C=C\c1nccnc1OCCn1cccc1` [CBK106891], for which the “% of control remaining” value is 153.801%.
The value for `COc1ccc(OCCCOc2ccccc2C(C)C)cc1` [CBK026366] was 122.062%.
The value for `CC(C)(O)C(=O)NCc1nc2c(s1)CC(c1ccccc1)CC2` (stereo not shown) [CBK304165] was 126.366%.
For `O=C(CCCc1c[nH]c2ccccc12)N1CCn2c(nnc2C2CC2)C1` [CBK283689], the “% of control remaining” value was 142.863%.
Take `COc1ccc(-c2noc([C@@H]3C[C@@H](O)CN3Cc3cccc(C#N)c3)n2)cc1` [CBK288843]: the “% of control remaining” value amounted to 129.619%.
The value for `COc1ccc([C@@H]2CN(C(=O)c3ccccc3)[C@H]3CCN(Cc4ccc(F)cc4)C[C@@H]23)cc1` [CBK285581] was 50.4847%.
The value for `Cc1cc(COc2cc(N3CCCNCC3)ncn2)no1` [CBK085462] was 137.917%; that for `CC(C)CNc1nccnc1-c1ccc2c(c1)OCO2` [CBK088730] was 97.9763%; that for `Cc1ccc(NC(=O)N(Cc2ccc3ccccc3c2)CC2CCNCC2)cc1[N+](=O)[O-]` [CBK049771] was 89.3185%.
The value for `CC(=O)Oc1ccc2c(=O)c(C3NC(C(=O)O)Cc4c3[nH]c3ccccc43)coc2c1` (stereo not shown) [CBK293948] was 90.9612%.
Take `CC(C)(C)Nc1c(C2CCN(C(=O)C3CC3)CC2)nc2ccccn12` [CBK284787]: the “% of control remaining” value was 91.6216%.
For `O=C(Cc1cccnc1)N1Cc2ccccc2C1` [CBK200320], the “% of control remaining” value was found to be 179.357%.
The value for `CC(=O)Nc1ccc(-n2cc(CN3CCC(Sc4ccccn4)CC3)nn2)cc1` [CBK149476] was 85.4289%; that for `c1ccc(C(Oc2nccnc2-c2ccncc2)c2ccccc2)cc1` [CBK106728] was 105.795%.
The value for `COc1ccc(C(C)C)cc1-c1cnc2[nH]c(=O)n(CCc3cccnc3)c2n1` [CBK064343] was 145.492%; that for `CCC(=O)N1C2CCC1c1cnc3cc(-c4ccco4)nn3c1C2` (stereo not shown) [CBK284384] was 75.5214%.
For `CC(C)(C)c1ccc(S(=O)(=O)N2CCCC[C@H]2CCOC(=O)c2ncccc2C(=O)O)cc1` [CBK200066], the “% of control remaining” value is recorded as 121.334%.
The value for `COc1ccc(C(=O)/C=C/c2ccc(N3N=C(c4ccccc4)CC3c3ccccc3)cc2)cc1` (stereo not shown) [CBK262274] was 98.9806%.
The value for `COC(=O)c1c(NC(=O)C(C)Oc2cc(C)c(Cl)c(C)c2)sc(C(C)=O)c1C` (stereo not shown) [CBK265678] was 125.901%.
The value for `O=C(Nc1ccc(NC(=O)Nc2cccc(Cl)c2)cc1)Nc1cccc(Cl)c1` [CBK267623] was 111.861%.
Take `CCN(CC)C(=O)N1CCN(CCCC(=O)c2ccc(F)cc2)CC1` [CBK025042C]: the “% of control remaining” value came to 110.198%.
The value for `O=C1NC2(CCCN(C(=O)c3ccco3)C2)Oc2ccccc21` (stereo not shown) [CBK284800] was 111.362%.
On to `c1cncc(CNc2nccnc2-c2ccoc2)c1` [CBK037635], for which the “% of control remaining” value is listed as 114.148%.
The value for `CC1(C)Cc2nc3sc4c(=O)n(CC(=O)NCCc5ccccc5)cnc4c3cc2CS1` [CBK269180] was 118.586%; that for `CCOc1ccccc1CNc1ccc(C2c3ccsc3CCN2C(=O)COC)cc1` (stereo not shown) [CBK286461] was 123.509%; that for `Cc1cc(C2CCCCCN2S(=O)(=O)c2ccc(F)cc2)on1` (stereo not shown) [CBK284668] was 83.6917%.
As for `COCc1cn([C@H]2CO[C@H]3[C@@H]2OC[C@H]3OC)nn1` [CBK289490], the “% of control remaining” value was found to be 155.414%.
The value for `Cc1cnn(C2CCCN(C(=O)CCCc3cccs3)C2)c1` (stereo not shown) [CBK304168] was 119.337%; that for `CCOC(=O)c1cc(Cl)cnc1C1CCN(C(=O)C2CC2)CC1` [CBK284810] was 168.224%; that for `O=C(Nc1ccc(N2CCN(C(=O)c3ccco3)CC2)cc1)c1cc([N+](=O)[O-])ccc1N1CCOCC1` [CBK269052] was 110.451%.
